Assay results published in PMC10251843 (Animals : an Open Access Journal from MDPI, 2023).

Assay: Nonspecific absorption (NSB) of the ultrafiltration unit
Conditions: physiological saline, 25 °C; for No Pretreatment NSB (%): UFU not pretreated, n = 3; for Pretreatment NSB (%): UFU pretreated with 5% Tween 80, n = 3

With `CCN1CCN(c2cc3c(cc2F)c(=O)c(C(=O)O)cn3C2CC2)CC1` [Enrofloxacin (EF), Enrofloxacin] the “No Pretreatment NSB (%)” value (1 μg/mL) was 99.24%, the “Pretreatment NSB (%)” value (1 μg/mL) was 0.52% and the “No Pretreatment NSB (%)” value (5 μg/mL) was 93.33%. The “Pretreatment NSB (%)” value (5 μg/mL) was 9.66%, the “No Pretreatment NSB (%)” value (10 μg/mL) was 82.05% and the “Pretreatment NSB (%)” value (10 μg/mL) was 16.14%.
